The values that follow come from patent publication US10053487B2, “Neuroactive 19-alkoxy-17(20)-Z-vinylcyano-substituted steroids, prodrugs thereof, and methods of treatment using same” (priority 2012, dated 2018).

In data set [1] the test system is T1, GABAA receptors (picrotoxin binding site).
T1 construct: other: duplicate experiments performed in triplicate; ± SEM; other: Hill coefficient
Nature of the data set: [35S]-TBPS displacement (non-competitive displacement from the picrotoxin binding site). Particulars: Hill coefficient; ± SEM. As for the experimental part: The IC50 values for the compounds of Scheme 1 (i.e., Compounds 1 and 2) as non-competitive displacers of [^35S]-TBPS from the picrotoxin binding site on GABAA receptors are reported in Table 1.
Results presented are from duplicate experiments performed in triplicate. Error limits are calculated as standard error of the mean. Methods used are known in the art (see, e.g., E. Stastna, et al., Neurosteroid Analogues. 16. A New Explanation for the Lack of Anesthetic Effects in Δ^16-Alphaxalone and Identification of a Δ^17(20) Analogue with Potent Anesthetic Activity, J. Med. Chem., 54(11), pp. 3926-34 (2011)).

Data set [2] deals with tadpoles. Nature of the data set: Tadpole loss of righting reflex (LRR) and loss of swimming reflex (LSR). Type of data set: in vivo. To be noted: Hill coefficient; for Tadpole LRR nHill: loss of righting reflex. The text has this: Table 3 discloses the anesthetic effects of the compounds of the present disclosure. In particular, the anesthetic effect of the compounds of the present disclosure on Loss of Righting Reflex (LRR) and Loss of Swimming Reflex (LSR).
A quantal dose-response curve for loss of righting reflect (LRR) and loss of swimming reflex (LSR) caused by Compound 1 in tadpoles, is illustrated in FIG. 3, as well. ^aMethods used are known in the art (see, e.g., E. Stastna, et al., Neurosteroid Analogues. 16. A New Explanation for the Lack of Anesthetic Effects in Δ^16-Alphaxalone and Identification of a Δ^17(20) Analogue with Potent Anesthetic Activity, J. Med. Chem., 54(11), pp. 3926-34 (2011)). Error limits are calculated as standard error of the mean (N=10 or more animals at each of five or more different concentrations).

`COC[C@]12CC[C@@H](O)C[C@@H]1CC[C@@H]1[C@@H]2CC[C@]2(C)/C(=C\C#N)CC[C@@H]12` [Compound 1, [3α,5α,17(20)Z]-19-methoxypregn-17(20)-ene-21-nitrile]: the “Inhibition of [35S]-TBPS binding, nHill” value in data set [1] was 1.21 ± 0.11. In addition, the “Tadpole LRR nHill” value in data set [2] is listed as −1.32 ± 0.23. In addition, the “Tadpole LSR nHill” value in data set [2] (loss of swimming reflex) was −20.0 ± 0.43.
Regarding `COC[C@]12CC[C@@H](O)C[C@@H]1CC[C@@H]1[C@@H]2CC[C@]2(C)/C(=C/C#N)CC[C@@H]12` [Compound 2, [3α,5α,17(20)E]-19-methoxypregn-17(20)-ene-21-nitrile], the “Inhibition of [35S]-TBPS binding, nHill” value in data set [1] came out at 0.91 ± 0.11. In data set [2], the “Tadpole LRR nHill” value is recorded as −1.97 ± 0.65.
